# Results are given in words; binding and its absence hold for the method and conditions named. Binding seen in cells or lysates may run through a third protein. Binding can be weak; no strength is given.
# The chains behind the UniProt entries cited, without tags or fusion partners. Where a name states a change or a piece, a line headed by the entry shows the natural chain unless it says otherwise. Residues count along the entry.
# UniProt P20827, residues 19-182: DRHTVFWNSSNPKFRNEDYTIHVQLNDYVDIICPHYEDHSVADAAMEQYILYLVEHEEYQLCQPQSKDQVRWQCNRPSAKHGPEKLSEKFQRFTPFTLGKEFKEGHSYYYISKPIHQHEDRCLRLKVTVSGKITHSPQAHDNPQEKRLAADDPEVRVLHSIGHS
# UniProt P29317: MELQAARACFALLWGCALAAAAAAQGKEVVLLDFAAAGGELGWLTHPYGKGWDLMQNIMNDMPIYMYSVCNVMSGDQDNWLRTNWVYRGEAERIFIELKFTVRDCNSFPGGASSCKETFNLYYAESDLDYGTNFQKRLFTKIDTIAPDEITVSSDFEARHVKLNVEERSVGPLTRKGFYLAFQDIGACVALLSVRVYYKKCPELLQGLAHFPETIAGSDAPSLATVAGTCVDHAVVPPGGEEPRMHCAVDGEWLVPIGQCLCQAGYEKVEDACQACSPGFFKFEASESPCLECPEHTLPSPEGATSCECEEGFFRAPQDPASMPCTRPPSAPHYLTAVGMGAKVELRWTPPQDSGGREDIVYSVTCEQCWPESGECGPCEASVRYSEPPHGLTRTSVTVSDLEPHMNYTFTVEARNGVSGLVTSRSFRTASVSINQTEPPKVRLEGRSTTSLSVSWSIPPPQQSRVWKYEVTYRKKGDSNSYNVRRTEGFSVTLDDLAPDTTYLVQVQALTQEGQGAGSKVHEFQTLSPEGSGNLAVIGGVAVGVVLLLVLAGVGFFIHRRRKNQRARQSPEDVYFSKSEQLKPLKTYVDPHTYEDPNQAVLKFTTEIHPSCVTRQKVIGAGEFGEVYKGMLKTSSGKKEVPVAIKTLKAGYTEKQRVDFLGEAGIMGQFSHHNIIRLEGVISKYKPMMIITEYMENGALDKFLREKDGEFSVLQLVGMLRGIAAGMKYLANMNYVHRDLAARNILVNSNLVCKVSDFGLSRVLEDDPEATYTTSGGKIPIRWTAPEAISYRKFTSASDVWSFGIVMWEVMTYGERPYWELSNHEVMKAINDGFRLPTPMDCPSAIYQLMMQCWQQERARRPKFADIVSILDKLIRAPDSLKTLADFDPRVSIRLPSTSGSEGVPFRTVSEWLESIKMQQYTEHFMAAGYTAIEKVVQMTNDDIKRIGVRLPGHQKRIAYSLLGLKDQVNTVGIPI
# Target: EFNA1-HA (human) (UniProt P20827)
# Experiment: co-IP; SiHa cells cotransfected with EFNA1-HA and FLAG-tagged EphA2 wild type or truncated mutants; immunoprecipitation with anti-HA antibodies (forward) and reverse co-IP
row,binding,Substance
1,no binding,EphA2^ΔEXT (from UniProt P29317) (receptor)
2,no binding,EphA2^ΔFNIII (from UniProt P29317) (receptor)
3,binds,EphA2^ΔLBD (from UniProt P29317) (receptor)
4,binds,EphA2^ΔLBD-KD (from UniProt P29317) (receptor)
5,binds,EphA2^ΔLSEF (from UniProt P29317) (receptor)
